Measurements published in PubChem BioAssay AID1347426 (Functional Genomics Laboratory (NCATS/FGL), 2020).
Hit rate of the full screen: of about 31,000 sequences, about 1,400 (4.5%) were called active.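 The calls were made as follows: active = median seed-adjusted z-score above 1 or below -1; inactive = the rest.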 Some of the results follow.

Test: Novel Modifiers of Survival Motor Neuron (SMN) Protein: Gene Identification via Genome-wide siRNA Screen;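 also: luminescence tracks full-length SMN protein made from the SMN2 reporter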
Conditions: HEK293T SMN2-luciferase reporter, siRNA knockdown, 72 h; actives lie on both sides
How it was run: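 Steps: spot 1 pmol siRNA, add Lipofectamine RNAiMax in serum-free DMEM, seed HEK293T SMN2–luciferase reporter cells; incubate 72 h at 37 °C; add ONE-Glo; normalize luminescence to control siRNA, log10, MAD. Candidates: |MAD| > 1.0.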

| Sequence | median seed-adjusted z-score |
| --- | --- |
| GAACUUGUCGCAUUGCGUUTT against TRIB2 | inactive: 0 |
| CCCUCAUCAAGAACUUUCATT against S100A14 | inactive: 0.0172 |
| CAGUAGUUAUAAUACUAGATT against SLC30A4 | inactive: 0.158 |
| GCAUCAAGAUUUUCCGCUUTT against SLC26A2 | active: -1.25 |
| GCAUGAUUCCAAUAGAGAATT against ACOT4 | inactive: -0.158 |
| GCUCCGUCCUUUUCAAAGATT against DHX37 | inactive: -0.126 |
| GAGUCAGAAGUUUACCAAATT against AFP | inactive: -0.144 |
| GGACUAUUCUAUCUGCUCATT against PUS3 | inactive: 0.584 |
| CAGCACCCGUGAAAAGCAATT against CHTF18 | inactive: 0.371 |
| UGACUAUUGCGACUGCAAATT against PRKCSH | inactive: -0.0512 |
| GACCGAUGGAGGUAGUAUATT against GLI3 | inactive: 0.143 |
| CAGUCUUCACUGACAACUATT against VIP | active: 1.52 |
| CCAAGACCGGUUCAGCUUUTT against B4GALNT3 | inactive: -0.021 |
| CCACUACGGUGUUCAUGCATT against PPARD | inactive: 0.0283 |
| CUUUGGACAUGUUCCAGAATT against ALOX12 | inactive: -0.247 |
| ACCCAGAUCUGCAAAUACATT against KLK10 | inactive: -0.902 |
| AUAUAUUGCUUGGAGAUGATT against STK16 | inactive: 0.113 |
| GAGCAACUGUGAUGAGGAATT against EMID2 | inactive: 0.0465 |
| GACUCAGACCACCACCAGATT against ZFP64 | inactive: -0.659 |
| GGAAUAUCCCUGGACAACATT against CASP3 | inactive: -0.874 |
| GACUUGCCUUUGAACUACATT against SCN5A | inactive: -0.167 |
| CCAUCGUCAACAUACGGAATT against TRIT1 | inactive: 0.794 |
| CCAGUCCUGAGUAUCCCAATT against CDCP2 | inactive: 0.0708 |

3 records picked at random from the list so far, as already listed:

| Sequence | median seed-adjusted z-score |
| --- | --- |
| CUUUGGACAUGUUCCAGAATT against ALOX12 | inactive: -0.247 |
| CCAAGACCGGUUCAGCUUUTT against B4GALNT3 | inactive: -0.021 |
| GGACUAUUCUAUCUGCUCATT against PUS3 | inactive: 0.584 |

An excerpt of these results, tab-delimited:
Sequence	median seed-adjusted z-score
CAGUAGUUAUAAUACUAGATT against SLC30A4	inactive: 0.158
GAGCAACUGUGAUGAGGAATT against EMID2	inactive: 0.0465

Continued.

| Sequence | median seed-adjusted z-score |
| --- | --- |
| GCAUCUCGCUUACCCUCAATT against ATXN1 | inactive: -0.024 |
| CCUCAACUCUUAUAUUACATT against ZNF595 | inactive: 0.102 |
| GCACCAGCGAGAGAAGAGATT against PLA2G3 | inactive: 0.543 |
| GGCUAUAACCUCUCUAUCATT against SLC2A11 | inactive: 0 |
| CACGCUCACAGAGAAGUUUTT against MEGF6 | inactive: 0 |
| CAUCCAGCUAUUUAUGAUATT against SAAL1 | inactive: 0.00224 |
| CCACCGUGGAAGGACAGAATT against SHARPIN | inactive: -0.00778 |
| CAGUGAGACAAUUAUGAAATT against MTHFD2 | inactive: -0.146 |
| GCAACAAGACGGAAUUGGATT against SFRS3 | active: 2.74 |
| GGUCUAUACAGAGUCAAUATT against MRCL3 | inactive: -0.00909 |
| GCUCUUUCCAAACUAGAAATT against KCNT1 | inactive: 0.379 |
| GCAUAUGCUUGACAGCUUUTT against STK36 | inactive: -0.0489 |
| GGAAUAAUUCAGUACUUAATT against ERAP2 | inactive: 0.081 |
| CGAUAACGACAGUAAAUCATT against CACNA2D1 | inactive: -0.541 |
| GCUUAUUUAUGUAUCAAUATT against ADRB1 | active: 1.06 |
| AGAUCUCCCUUAAGAGCAATT against E2F1 | inactive: -0.211 |
| GGCUAACAUUAGAACACUUTT against MED6 | active: -2.15 |
| CCAGAUUACUAUGUCGGAATT against IPO7 | inactive: -0.143 |
| CCACAUUUGAGUUUGAGAATT against PRSS21 | inactive: -0.306 |
| GCACCAUCGUCCUUGAACATT against DUOX1 | active: -1.09 |
| GCAUCAUUGAGCUCACAGATT against MEX3B | inactive: -0.0576 |
| GGAUUAGGAGCUUUCGUUATT against TUBD1 | inactive: -0.00491 |
| GGAGCAGGGUUCAUGCAUATT against SLC39A2 | inactive: 0.0602 |

| Sequence | median seed-adjusted z-score |
| --- | --- |
| ACUCAUUAAACUACUCAAATT against ANAPC11 | inactive: -0.581 |
| CCCAAGACGUGUGAUAUCATT against UBE2M | inactive: 0.0974 |
| CCAUCGAGCUCGUGAAGAATT against ACVR2B | inactive: 0.824 |
| GAUAAGAUUUGUUUAGUGATT against BLMH | inactive: -0.156 |
| UGAACGCAGUCAUCCGGAATT against MAPK15 | inactive: 0.0724 |
| AAUUCAAGCUAUGAAGAUATT against ACO2 | active: -1.57 |
| UGGGACUGGUUGACACAAATT against THA1P | inactive: -0.509 |
| GGAUAUCUUCUAUGAUCUATT against SMAD7 | inactive: -0.25 |
| GACUUGACAGGGAACGGAATT against MICA | inactive: -0.0635 |
| GCAGAUUAAUUCCAACCAATT against IRF1 | inactive: 0.831 |
| GCAGCGAUGUACAAUCCCATT against OPN5 | inactive: 0.483 |
| GCUUCUAAGGAGUACUUAATT against GZF1 | inactive: 0.286 |
| GGAUUCUUCUCUAAUACUUTT against MTM1 | inactive: 0.406 |
| GCUUGCCCUUAAUCAAAGATT against CYP2J2 | inactive: 0.00659 |
| GAACGAGUCCUUUACUACATT against GFM1 | inactive: -0.0641 |
| GCAUUAUGAUUACAAUAGUTT against HTR1F | inactive: -0.127 |
| CUCCUUCCCGGAUGAUUUATT against KLF17 | inactive: -0.131 |
| GACAUUUCUUGCAUGUUAATT against SPO11 | inactive: 0.475 |
| GGCUCUACCAGUGUACUAATT against PAPPA | inactive: -0.0169 |
| CAACGAGUUUGGGACUGUUTT against PPM2C | inactive: 0.518 |
| GCUGUCUCCUGAACAGGGATT against TRAPPC4 | inactive: 0 |
| CCUCAUUGUUUCGAAAUCATT against PRKD1 | inactive: -0.323 |
